Measurements reported in patent US20160201132A1, “GENE EXPRESSION BIOMARKERS OF LAQUINIMOD RESPONSIVENESS” (Teva Pharmaceutical Industries Ltd., priority 2013, published 2016).
Where “and” joins values, the source holds several entries; their conditions need not be identical. Equal values may be shown once. The source gives many values for each of these; only a part stands here.

Tested on: PBMC of RRMS patients
Experiment: Gene expression microarray analysis (HG-U133A-2) of PBMC from RRMS patients treated with LAQ, ancillary study to ALLEGRO
Format: in vivo, human
Source text: The goal of this ancillary study was to characterize gene expression changes and corresponding biological mechanisms induced in PBMC of RRMS patients by LAQ treatment. According to ALLEGRO clinical trial inclusion criteria, 25 patients were randomly assigned to receive LAQ (n=13, age 38.8±2.3 years, female/male ratio: 8/5) or placebo (n=12, age 37.2±3.4 years, female/male ratio: 8/4).
Peripheral blood samples were obtained from RRMS patients at baseline before start of LAQ treatment or placebo, after 0, 1, 6 and 24 month of treatment (visit 0, 1, 6 and 7 according to ALLEGRO clinical trial protocol correspondently) for gene microarray analysis.
Briefly, 1) Peripheral blood mononuclear cells (PBMC) were obtained from RRMS patients that participated in ALLEGRO and were treated daily with 0.6 mg LAQ or placebo. PBMC were subjected for gene expression analysis (HU-133A-2-Affymatrix arrays) at baseline and at 1 and 6 months of LAQ treatment; 2) Data was analyzed by Partek Genomics Solution software. Most informative genes (MIGs) were defined as those that differentiated between groups with p<0.01. Gene functional annotation, enrichment and pathway analysis were performed by Ingenuity software. For each time point, genes that changed in placebo group were excluded from further analysis; and 3) Verification of LAQ related mechanism was performed by Western blot.
PBMC were extracted from 15 ml peripheral blood, separated by Ficoll-Hypaque gradient. Total RNA was extracted using both Trizol (Invitrogen, USA) and Phase-Lock-Gel columns (Eppendorf, Germany) including a DNase digestion step. RNA integrity was assessed by RNA Experion automated electrophoresis system (Bio-Rad Laboratories, Hercules, Calif.).
Probe synthesis using 3 μg total RNA, hybridization, detection, and scanning was performed according to the standard Affymetrix, Inc. USA protocols; cDNA was synthesized using the Two-Cycle cDNA Synthesis Kit (Affymetrix, Inc., USA), and in-vitro transcription performed with the GeneChip IVT Labeling Kit (Affymetrix, Inc., USA). The biotin-labeled IVT-RNA was hybridized to HG-U133A-2 arrays containing 18,400 gene transcripts, each corresponding to 14,500 well-annotated human genes, washed in a GeneChip Fluidics Station 450 (Hewlett Packard, USA, GeneArray-™ scanner G2500A) and scanned according to the manufacturer's protocol (Affymetrix, Inc., USA).
Data analysis was performed on Partek Genomics Solution software (www.partek.com; Partek Incorporated, St. Louis, Mo.). Expression values were computed from raw CEL files by applying the Robust Multi-Chip Average (RMA) background correction algorithm. RMA correction included: 1) values background correction; 2) quintile normalization; 3) log 2 transformation; and 4) median polish summarization. The ANOVA, Repeated Measures and correlation analysis implicated in Partek software ware applied to evaluate LAQ effects. Most informative genes MIGs were defined as those that differentiated between experimental groups with p<0.01. All p-values were calculated for False Discovery Rate (FDR) multiple test correction at p=0.05.
Additionally, significance of individual genes was tested by parametric T-test and non parametric Mann-Whitney test using Bootstrapping approach based on repeated permutations of the data with 5% FDR for multiple testing.
Gene functional annotation, enrichment, and pathway analyses to identify the leading biological pathways that operated under LAQ treatment were performed by Ingenuity Pathways Analysis software (www.ingenuity.com).
ANOVA analysis was used to compare PBMC gene expression after 1, 6 or 24 month of LAQ treatment with baseline gene expression.
For each time point inventors performed analysis source of variation in dataset. (FIG. 1). Age, gender and batch effects were considered as confounders regarding LAQ or Placebo related changes. For each time point genes associated with Placebo effect were evaluated and excluded from further analysis. […]

Structure (SMILES): CCN(C(=O)c1c(O)c2c(Cl)cccc2n(C)c1=O)c1ccccc1 [LAQ, 5-chloro-N-ethyl-4-hydroxy-1-methyl-2-oxo-N-phenyl-1,2-dihydroquinoline-3-carboxamide]
- Fold-Change (4.0 vs. 0.0) (gene PNPLA2, six months of treatment): −1.147
- Fold-Change (4.0 vs. 0.0) (gene PODNL1, after six months of LAQ): −1.132
- Fold-Change (4.0 vs. 0.0) (gene POFUT2, after six months of LAQ): −1.274
- Fold-Change (4.0 vs. 0.0) (gene POU1F1, PBMC, six months of LAQ treatment): −1.102
- Fold-Change (4.0 vs. 0.0) (gene PP14571, six months of treatment): −1.148
- Fold-Change (4.0 vs. 0.0) (gene PPAP2B, after six months of LAQ): −1.2452
- Fold-Change (4.0 vs. 0.0) (gene PPL, after six months of LAQ): −1.139
- Fold-Change (4.0 vs. 0.0) (gene PPP5C, after six months of LAQ): −1.261
- Fold-Change (4.0 vs. 0.0) (gene PRDM4, after six months of LAQ): −1.142
- Fold-Change (4.0 vs. 0.0) (gene PRDM5, PBMC, six months of LAQ treatment): −1.118
- Fold-Change (4.0 vs. 0.0) (gene PREX2, PBMC, six months of LAQ treatment): −1.118
- Fold-Change (4.0 vs. 0.0) (gene PRICKLE3, PBMC, six months of LAQ treatment): −1.121
- Fold-Change (4.0 vs. 0.0) (gene PRKAR1B, PBMC, six months of LAQ treatment): −1.118
- Fold-Change (4.0 vs. 0.0) (gene PRKCA, PBMC, six months of LAQ treatment): −1.122
- Fold-Change (4.0 vs. 0.0) (gene PRKD1, PBMC, six months of LAQ treatment): −1.092
- Fold-Change (4.0 vs. 0.0) (gene PRLH, after six months of LAQ): −1.262
- Fold-Change (4.0 vs. 0.0) (gene PROX1): −1.194
- Fold-Change (4.0 vs. 0.0) (gene PRRG3, after six months of LAQ): −1.258
- Fold-Change (4.0 vs. 0.0) (gene PRRX2, six months of treatment): −1.147
- Fold-Change (4.0 vs. 0.0) (gene PRSS2, after six months of LAQ): −1.2322
- Fold-Change (4.0 vs. 0.0) (gene PRSS3, after six months of LAQ): −1.225
- Fold-Change (4.0 vs. 0.0) (gene PRUNE2, six months of treatment): −1.157
- Fold-Change (4.0 vs. 0.0) (gene PSG1, six months of treatment): −1.152
- Fold-Change (4.0 vs. 0.0) (gene PTCRA, after six months of LAQ): −1.359
- Fold-Change (4.0 vs. 0.0) (gene PTGER1, after six months of LAQ): −1.123
- Fold-Change (4.0 vs. 0.0) (gene PTGER3, six months of treatment): −1.146
- Fold-Change (4.0 vs. 0.0) (gene PTH, PBMC, six months of LAQ treatment): −1.105
- Fold-Change (4.0 vs. 0.0) (gene PTHLH, PBMC, six months of LAQ treatment): −1.1157
- Fold-Change (4.0 vs. 0.0) (gene PTN, PBMC, six months of LAQ treatment): −1.115
- Fold-Change (4.0 vs. 0.0) (gene PTN, six months of treatment): −1.158
- Fold-Change (4.0 vs. 0.0) (gene PTPRF, after six months of LAQ): −1.127
- Fold-Change (4.0 vs. 0.0) (gene PTPRF, six months of treatment): −1.158
- Fold-Change (4.0 vs. 0.0) (gene PVRL2, after six months of LAQ): −1.272
- Fold-Change (4.0 vs. 0.0) (gene PVT1): −1.188
- Fold-Change (4.0 vs. 0.0) (gene PXN, after six months of LAQ): −1.248
- Fold-Change (4.0 vs. 0.0) (gene RAB6B, after six months of LAQ): −1.376
- Fold-Change (4.0 vs. 0.0) (gene RAB17, after six months of LAQ): −1.24
- Fold-Change (4.0 vs. 0.0) (gene RAD54L, PBMC, six months of LAQ treatment): −1.109
- Fold-Change (4.0 vs. 0.0) (gene RAG2, after six months of LAQ): −1.138
- Fold-Change (4.0 vs. 0.0) (gene RAMP3, after six months of LAQ): −1.368
- Fold-Change (4.0 vs. 0.0) (gene RAP1GAP, after six months of LAQ): −1.14
- Fold-Change (4.0 vs. 0.0) (gene RAPGEF4, after six months of LAQ): −1.129
- Fold-Change (4.0 vs. 0.0) (gene RAPGEF5): −1.188
- Fold-Change (4.0 vs. 0.0) (gene RAPSN, after six months of LAQ): −1.266
- Fold-Change (4.0 vs. 0.0) (gene RASL11B, after six months of LAQ): −1.1329
- Fold-Change (4.0 vs. 0.0) (gene RASL12, six months of treatment): −1.149
- Fold-Change (4.0 vs. 0.0) (gene RAX, after six months of LAQ): −1.25
- Fold-Change (4.0 vs. 0.0) (gene RBBP9): −1.192
- Fold-Change (4.0 vs. 0.0) (gene RBM12B, PBMC, six months of LAQ treatment): −1.116
- Fold-Change (4.0 vs. 0.0) (gene RBM15B, after six months of LAQ): −1.141
- Fold-Change (4.0 vs. 0.0) (gene RBM26, six months of treatment): −1.16
- Fold-Change (4.0 vs. 0.0) (gene RECQL5): −1.194
- Fold-Change (4.0 vs. 0.0) (gene RGS4, six months of treatment): −1.15
- Fold-Change (4.0 vs. 0.0) (gene RHAG, after six months of LAQ): −1.1352
- Fold-Change (4.0 vs. 0.0) (gene RHBDD3, six months of treatment): −1.16
- Fold-Change (4.0 vs. 0.0) (gene RHD, after six months of LAQ): −1.276
- Fold-Change (4.0 vs. 0.0) (gene RIBC2, after six months of LAQ): −1.24
- Fold-Change (4.0 vs. 0.0) (gene RIOK3, after six months of LAQ): −1.265
- Fold-Change (4.0 vs. 0.0) (gene RIPK2, after six months of LAQ): −1.369
- Fold-Change (4.0 vs. 0.0) (gene RLINX1, after six months of LAQ): −1.243
- Fold-Change (4.0 vs. 0.0) (gene RNF17, six months of treatment): −1.15
- Fold-Change (4.0 vs. 0.0) (gene RP11-35N6.1, after six months of LAQ): −1.129
- Fold-Change (4.0 vs. 0.0) (gene RP11-257K9.7, six months of treatment): −1.159
- Fold-Change (4.0 vs. 0.0) (gene RPE65, after six months of LAQ): −1.131
- Fold-Change (4.0 vs. 0.0) (gene RTEL1, six months of treatment): −1.147
- Fold-Change (4.0 vs. 0.0) (gene RTN2, after six months of LAQ): −1.268
- Fold-Change (4.0 vs. 0.0) (gene RUNX1, after six months of LAQ): −1.133
- Fold-Change (4.0 vs. 0.0) (gene RXRG, six months of treatment): −1.148
- Fold-Change (4.0 vs. 0.0) (gene S1PR2, after six months of LAQ): −1.14
- Fold-Change (4.0 vs. 0.0) (gene SAMD14, after six months of LAQ): −1.293
- Fold-Change (4.0 vs. 0.0) (gene SASH1, PBMC, six months of LAQ treatment): 1.644 and 2.013
- Fold-Change (4.0 vs. 0.0) (gene SCML2, after six months of LAQ): −1.239
- Fold-Change (4.0 vs. 0.0) (gene SCN11A, after six months of LAQ): −1.124
- Fold-Change (4.0 vs. 0.0) (gene SDHB, after six months of LAQ): −1.253
- Fold-Change (4.0 vs. 0.0) (gene SEMA3E, six months of treatment): −1.153
- Fold-Change (4.0 vs. 0.0) (gene SEMA3F, after six months of LAQ): −1.14
- Fold-Change (4.0 vs. 0.0) (gene SEMA6A, after six months of LAQ): −1.235
- Fold-Change (4.0 vs. 0.0) (gene SERPINA3, six months of treatment): −1.16
- Fold-Change (4.0 vs. 0.0) (gene SERPINA6, after six months of LAQ): −1.123
- Fold-Change (4.0 vs. 0.0) (gene SEZ6L2, six months of treatment): −1.144
- Fold-Change (4.0 vs. 0.0) (gene SHOX2, after six months of LAQ): −1.14
- Fold-Change (4.0 vs. 0.0) (gene SHROOM2, after six months of LAQ): −1.225
